Results as given in patent US20050074834A1 (priority 2001, published 2005).

System: chromatophores

## COC(=O)C1=C(C)NC(C)=C(C(=O)OC)C1c1ccccc1[N+](=O)[O-] [Nifedipine]
  Threshold concentration PPB: XX (key: X=1 to 100 PPB; XX=100 to 1000 PPB)
